For this assay, the target named is T1, Flotillin2 (human (endogenous in HEK293 GnTl-)) (UniProt Q14254).
T1 sequence (chain, N-myristoylated on Gly2 (as the paper says, citing ref. 19)): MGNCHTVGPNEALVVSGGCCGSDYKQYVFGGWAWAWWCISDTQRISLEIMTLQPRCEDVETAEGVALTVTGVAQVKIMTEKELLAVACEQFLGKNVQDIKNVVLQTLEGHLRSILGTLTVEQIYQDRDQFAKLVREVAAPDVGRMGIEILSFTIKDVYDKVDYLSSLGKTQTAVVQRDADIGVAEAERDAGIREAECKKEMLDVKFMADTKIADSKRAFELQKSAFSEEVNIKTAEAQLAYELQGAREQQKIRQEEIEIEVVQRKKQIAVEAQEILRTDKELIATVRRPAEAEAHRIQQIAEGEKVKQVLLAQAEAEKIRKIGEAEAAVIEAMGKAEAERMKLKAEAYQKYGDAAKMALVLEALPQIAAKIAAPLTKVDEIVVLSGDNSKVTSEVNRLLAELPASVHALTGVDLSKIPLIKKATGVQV
Briefly: cryo-EM structure; endogenous Flotillin cage on native membrane vesicles from HEK293 GnTl- cells (NEM, Ca2+ GPMV method, sonicated, sucrose gradient), without detergent; single-particle analysis, C44 then C22 symmetry, 3.5 Å.

These are yes or no findings as the source states them, for the method shown. Some entries that bind do so weakly or less than the wild type.

B1: Flotillin1 (protein, UniProt O75955 1-427)
chain: MFFTCGPNEAMVVSGFCRSPPVMVAGGRVFVLPCIQQIQRISLNTLTLNVKSEKVYTRHGVPISVTGIAQVKIQGQNKEMLAAACQMFLGKTEAEIAHIALETLEGHQRAIMAHMTVEEIYKDRQKFSEQVFKVASSDLVNMGISVVSYTLKDIHDDQDYLHSLGKARTAQVQKDARIGEAEAKRDAGIREAKAKQEKVSAQYLSEIEMAKAQRDYELKKAAYDIEVNTRRAQADLAYQLQVAKTKQQIEEQRVQVQVVERAQQVAVQEQEIARREKELEARVRKPAEAERYKLERLAEAEKSQLIMQAEAEAASVRMRGEAEAFAIGARARAEAEQMAKKAEAFQLYQEAAQLDMLLEKLPQVAEEISGPLTSANKITLVSSGSGTMGAAKVTGEVLDILTRLPESVERLTGVSISQVNHKPLRTA
On to B1, for which the binding result was “binds”.

The values above are taken from PMC11260169.
